# Screening data, single-dose tests

Results are given as percent effect. How 0% and 100% were set is not recorded. Most values in the screen are low, and negative values occur. Compounds were drawn at random from those tested, without regard to their results. Two or more numbers in one place are separate tests of the same structure; such repeats can differ widely.

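Phenotypic screen: M. tuberculosis growth, glucose 7H9 medium, 3 days; the read-out is not stated. Compounds at 50 µM. The record gives no direction; compounds that gave an IC50 in retests scored well above the rest, so higher reads as more growth inhibition. About 69,000 compounds were tested under these conditions; 1.1% (about 760) showed 50% or more at least once.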

With CN1C[C@@H](n2cnc(-c3ccccc3)c2-c2c[nH]cn2)C[C@H]1C(=O)O the screen gave -49.04%.
With Cc1nccnc1CN1CCC2(CCCN(C3CCOCC3)C2=O)C1 (stereo not given) the screen gave 7.864%.
With CNC(=O)Cc1noc(-c2cc3c(s2)CCCC3)n1 the screen gave 14.16% and 14.07%.
With Cc1nc(NC(=O)c2cccnc2N2CCOCC2)sc1C the screen gave -22.33%.
With Cc1n[nH]c(C)c1NC(=O)CN1CCCC1c1c(C)nn(C)c1C (stereo not given) the screen gave 5.774%.
With O=C(O)C(F)(F)F.O=C(O)C(F)(F)F.c1csc(CN2Cc3nc(CN4CCCC4)oc3C2)c1 the screen gave 45.78%.
With Cc1cc(C)n(CC(=O)N2CCC(c3ccn4nccc4n3)CC2)n1 the screen gave 10.43%.
With NC(=O)C1CCN(c2ccc(C(=O)N3CCc4ccccc43)cn2)C1 (stereo not given) the screen gave -17.14%.
With O=C(CCn1cccn1)NCCOc1ccc2c(c1)OCO2 the screen gave -15.45%.
With CN(C)c1ccc(CC2CCN(c3cnccn3)CC2)nn1 the screen gave 21.82%.
With O=C1N(Cc2cccc(F)c2F)CCCC1(O)CNCC1CCCCC1 (stereo not given) the screen gave 0.7379%.
With CS(=O)(=O)N1CCC(C(=O)NC(Cc2ccsc2)c2nccs2)CC1 (stereo not given) the screen gave 23.09%.
With [H][C@@]12CCN(C)[C@]1([H])CN(C(=O)COCc1nc3cc(F)ccc3[nH]1)C2 the screen gave -45.89%.
With c1ccc(C2CN(C3CC3)CC3(CCN(Cc4ncc[nH]4)CC3)C2)cc1 (stereo not given) the screen gave 9.776% and 7.722%.
With Cc1cccc(C(=O)N2CCCCC2c2ccc(CN(C)C)cc2)n1 (stereo not given) the screen gave 5.824%.
With O=C(Nc1ccc(-c2csnn2)cc1)N1CCCC1 the screen gave 0.157%.
With CCc1c(C)nc2cc(-c3nccn3C)nn2c1N1CCCC(CO)C1 (stereo not given) the screen gave 8.671%.
With O=C(O)c1cnc(N2CCC(O)CC2)nc1COc1cccc(F)c1 the screen gave -12.47% and 1.516%.
With Cc1noc(C)c1CS(=O)(=O)CC(=O)NCCc1cccs1 the screen gave -3.291% and -13.14%.
With CN(C)c1ccc(CNC(=O)NCCc2ccccn2)cn1 the screen gave 9.992%.
With O=C(NCC(O)c1cccc(O)c1)C1CCN(C2CCCCC2)CC1 (stereo not given) the screen gave -32.72% and 7.769%.
With Cc1ccc(N2CCN(C(=O)CCc3n[nH]c(C)n3)CC2=O)cc1 the screen gave -2.582%.
With O=C(CC1CCCCC1)N1CCC(O)(C(F)(F)F)C1 (stereo not given) the screen gave 42.44%.
With COc1ccc(C(=O)NCC(c2cccn2C)N2CCCC2)cc1OC (stereo not given) the screen gave 1.638%.
With CCn1ncc2c1C(COC)N(C(=O)c1cccs1)CC2.O=C(O)C(F)(F)F (stereo not given) the screen gave -6.659%.
With CCn1ncc2c1C(COCC1CC1)N(Cc1cnn(C)c1)CC2.O=C(O)C(F)(F)F.O=C(O)C(F)(F)F.O=C(O)C(F)(F)F (stereo not given) the screen gave -3.094% and -6.435%.
With N#Cc1ccc(CNc2cccc(C(=O)N3CCOCC3)c2)cc1 the screen gave 10.64%.
With CCN(CCNC(=O)C1CCN(C(C)=O)CC1)c1ccccc1C the screen gave 13.71%.
With [H][C@@]12CCN(S(=O)(=O)N(C)C)C[C@@]1([H])O[C@H](c1ccnc(C)n1)C2 the screen gave -5.334%.
With OCC1(O)CCN(c2ccnc3c(C(F)(F)F)cccc23)CC1 the screen gave 6.013%.
With O=C(O)C(F)(F)F.O=C(O)C(F)(F)F.[H][C@@]12CN(Cc3ccncc3)C[C@]1([H])[C@H](OC)CCN2S(=O)(=O)N(C)C the screen gave 2.612% and -5.103%.
With Cc1cnc(-n2cnnc2)c(-c2cccc3c2CCNC3)c1 the screen gave -1.825%.
With Cc1nc(O)cc(CCNc2nc(N(C)C)nc(C)c2C)n1 the screen gave -33.75%.
With CCc1nccn1C1CCCN(C(=O)c2ccn(-c3ccccc3)n2)C1 (stereo not given) the screen gave 11.12%.
With COCC1CC2(CCN(C(C)=O)CC2)CN1Cc1csc(C)n1.O=C(O)C(F)(F)F (stereo not given) the screen gave -3.609% and 9.323%.
With CSc1nccc(NCc2cc3n(n2)CCCN(S(C)(=O)=O)C3)n1 the screen gave -4.818%.
With Cc1ccc(-c2nc(CNC3CCc4ncnn4C3)no2)cc1 (stereo not given) the screen gave -36.84%.
With Cc1ccc(-c2nc(CNCC3CN(C)CCO3)cs2)o1 (stereo not given) the screen gave 30.7%.
With COCc1nc(C2CCN(Cc3nccn3C)CC2)no1 the screen gave 8.168%.
With Cc1nccnc1C1CCN(C(=O)C(C)C)CC1 the screen gave -23.14%.
With [H][C@]12CC[C@]([H])(CN(C(=O)Cc3ccccn3)C1)N(Cc1ccccc1)C2=O the screen gave -38.56%.
With Cc1nc(C(=O)N(CC2CCCO2)c2ccncc2)cs1 (stereo not given) the screen gave 7.88%.
With OCCc1ncnn1Cc1cccc(Cl)c1 the screen gave -48.13%.
With CC(C)OC(=O)[C@@H]1CCN(C(=O)c2ccccn2)[C@@H]1c1ccc(F)cc1 the screen gave -9.418%.
With CC(=O)N[C@@H]1CN(c2nc(C(N)=O)cs2)C[C@H]1c1ccc(C)o1 the screen gave 12.24%.
With COc1ccccc1N1CCC(CNCc2cccc(C#N)c2)C1 (stereo not given) the screen gave 4.378%.

Once more, the final 4:

{"structure": "OCCc1ncnn1Cc1cccc(Cl)c1", "effect": -48.13}
{"structure": "CC(C)OC(=O)[C@@H]1CCN(C(=O)c2ccccn2)[C@@H]1c1ccc(F)cc1", "effect": -9.418}
{"structure": "CC(=O)N[C@@H]1CN(c2nc(C(N)=O)cs2)C[C@H]1c1ccc(C)o1", "effect": 12.24}
{"structure": "COc1ccccc1N1CCC(CNCc2cccc(C#N)c2)C1", "stereo": "stereo not given", "effect": 4.378}

Source: ChEMBL document CHEMBL3988442, “University of Dundee, Small-Polar-MMV Screening Library” (2021).